Laboratory results published in patent publication US20200010489A1, “ZWITTERIONIC SILATRANE-BASED MATERIAL AND ANTIFOULING SUBSTRATE CONTAINING SAME” (National Central University, priority 2018, published 2020).
Some of these results come from one statement about several compounds together. For at least one compound, name, drawing or mass did not settle the structure.

Test system: NIH-3T3 fibroblasts
Test: Cytotoxicity test (MTT cell viability)
Format: cell-based
Conditions: 25 mM, incubation 24 hours

For CO[Si](CCC[N+](C)(C)CCCS(=O)(=O)[O-])(OC)OC [SBSi, sulfobetaine silane, reference compound], the viability was “greater than 80%”.
